Laboratory results from PubChem BioAssay AID720504 (National Center for Advancing Translational Sciences (NCATS), 2013).
The whole screen tested about 360,000 compounds, of which about 10,000 (2.8%) were called active. Inconclusive results, whose numbers are uncertain, are shown with a selection of clear calls. Calls come from the whole dose curve; as a rule, active = well fitted inhibition curve with a large enough effect; inconclusive = small, poorly fitted or top-dose-only effect; inactive = flat fitted curve, though single readings scatter. Potencies of inconclusive entries are doubtful fits and often do not repeat.

The chains behind the UniProt entries cited, without tags or fusion partners.
UniProt P53350, whole entry, looked up: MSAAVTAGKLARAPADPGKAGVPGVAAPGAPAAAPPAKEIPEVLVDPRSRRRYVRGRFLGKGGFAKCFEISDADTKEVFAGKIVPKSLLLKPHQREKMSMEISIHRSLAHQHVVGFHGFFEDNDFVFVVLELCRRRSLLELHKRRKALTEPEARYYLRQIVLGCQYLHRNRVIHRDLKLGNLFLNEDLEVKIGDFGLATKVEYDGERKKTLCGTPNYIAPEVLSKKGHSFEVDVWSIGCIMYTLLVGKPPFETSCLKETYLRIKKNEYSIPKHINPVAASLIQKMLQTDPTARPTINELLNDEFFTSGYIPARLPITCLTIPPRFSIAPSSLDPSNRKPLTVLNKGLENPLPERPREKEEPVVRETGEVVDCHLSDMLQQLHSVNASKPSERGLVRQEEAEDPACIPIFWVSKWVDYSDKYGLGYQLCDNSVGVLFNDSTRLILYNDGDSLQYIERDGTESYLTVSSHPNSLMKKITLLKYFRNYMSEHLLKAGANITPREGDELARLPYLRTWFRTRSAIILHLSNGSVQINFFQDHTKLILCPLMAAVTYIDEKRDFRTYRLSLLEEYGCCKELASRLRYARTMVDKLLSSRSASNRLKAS

target: Serine/threonine-protein kinase PLK1 (Homo sapiens) (UniProt P53350); experiment: qHTS for Inhibitors of PLK1-PDB (polo-like kinase 1 - polo-box domain): Primary Screen; conditions: Plk1 PBD binding of FITC phosphopeptide, fluorescence polarization; note: nearly all actives have a fitted effect of over 65% in size; for max response, negative = inhibition: series mostly up to about 57 µM
% is set by controls: 0 for no effect and ±100 for the full control effect; potency is the fitted concentration of half-maximal effect.

Row | SMILES | Potency | max response, negative = inhibition
1 | CC(C)(C)C(C(=O)n1cccc1C#N)c1ccccc1 (configuration not stated) | inconclusive: 37.7 µM [inhibitor, single point] | 
2 | COc1ccc(CN2CC(C(=O)N3CC(C)CC(C)C3)CC2=O)cc1 (configuration not stated) | active: 26.7 µM | 
3 | CC(C)CSc1nnc2c(n1)[nH]c1ccccc12 |  | inactive: -3.65%
4 | CCOc1ccc2nc(NCCNC(=O)CC)c(C#N)cc2c1 | inconclusive: 33.6 µM [inhibitor, single point] | 
5 | CCOC(=O)CSc1n[nH]c(NC(=O)c2cccc(C(F)(F)F)c2)n1 | inconclusive: 8.44 µM [inhibitor, partial curve] | 
6 | CC(C(=O)NN=C(c1ccccc1)c1ccccc1)N1CCOCC1 (configuration not stated) | inconclusive: 29.9 µM [inhibitor, partial curve] | 
7 | CN(C)/C=C(\C=O)c1ncc(C(F)(F)F)cc1Cl | inconclusive: 26.7 µM [inhibitor, single point] | 
8 | O=C(c1ccccc1)c1ccc2nc(-c3ccco3)c(-c3ccco3)nc2c1 | active: 7.52 µM | 
9 | Oc1ccc(/C=N/N2CCCCC2)cc1O | inconclusive: 26.7 µM [inhibitor, single point] | 
10 | Cc1ccc(C(=O)NCCCc2ccccc2)c(C)c1 | active: 23.8 µM | 
11 | CN1CCN(C(=O)CCN2C(=O)/C(=C\c3ccc(Cl)cc3Cl)SC2=S)CC1 | active: 42.3 µM | 
12 | COCCCn1c(-c2ccco2)nc2ccccc2c1=O |  | inactive: -8.36%
13 | CCc1ccc(C(=O)COC(=O)c2cccs2)cc1 |  | inactive: -28%
14 | COC(=O)CSc1ccc(-c2nc3ccc(C)cc3[nH]2)cn1 | inconclusive: 18.9 µM [inhibitor, partial curve] | 
15 | COC(=O)c1ccc(NC(=O)CSc2nc3cccnc3n2C)cc1 | inconclusive: 29.9 µM [inhibitor, partial curve] | 
16 | COC(=O)/C=C1\SC(=NC(=O)c2cccc(Cl)c2)NC1=O | inconclusive: 23.8 µM [inhibitor, partial curve] | 
17 | Cc1ccc(S(=O)(=O)N2[C@@H](c3ccccc3)C(C(=O)O)=CC[C@H]2c2ccc(Cl)c(Cl)c2)cc1 | inconclusive: 23.8 µM [inhibitor, single point] | 
18 | CCOC(=O)c1sc(NC(=S)NC(=O)CC(C)C)cc1C | active: 26.7 µM | 
19 | O=C(O)c1cc(N/N=C/c2ccc(-c3ccc(F)cc3)o2)ccc1Cl | inconclusive: 26.7 µM [inhibitor, single point] | 
20 | Cn1cc(CCC(=O)N2CCCC(C(=O)c3cccc4ccccc34)C2)cn1 (configuration not stated) | inconclusive: 21.2 µM [inhibitor, single point] | 
21 | O=C(Nc1ccccc1)c1nnsc1S(=O)c1ccc(Cl)cc1 (configuration not stated) | active: 0.474 µM | 
22 | CCN(CC)/C(Sc1ccccc1)=C(\C(Cl)=C(Cl)Cl)[N+](=O)[O-] |  | inconclusive: -34.4% [inhibitor]
23 | O=C(O)CC(NC(=O)C12CC3CC(CC(C3)C1)C2)c1cc([N+](=O)[O-])ccc1Cl (configuration not stated) | inconclusive: 18.9 µM [inhibitor, partial curve] | 
24 | COc1ccc(-c2n[nH]c(=S)n2-c2ccccc2C)cc1 | inconclusive: 18.9 µM [inhibitor, partial curve] | 

Row | SMILES | Potency | max response, negative = inhibition
25 | C/C(=N/NS(=O)(=O)c1ccc(Cl)cc1)c1cccc(NC(=O)c2ccc(Cl)cc2Cl)c1 | active: 18.9 µM | 
26 | C[C@@H]1CN([C@H](C)CO)C(=O)c2cc(NC(=O)Nc3ccc(F)cc3)ccc2O[C@@H](C)CCCCO[C@H]1CN(C)S(=O)(=O)c1cccs1 |  | inactive: -0.54%
27 | Cc1[nH]c2ccccc2c1C1=CC(=O)C=CC1=O | active: 3.36 µM | 
28 | O=C(CSc1nnnn1C1CCCC1)c1ccc2c(c1)OCCO2 | inconclusive: 23.8 µM [inhibitor, single point] | 
29 | CCCCCCNC(=O)CC(NS(=O)(=O)c1ccc(NC(C)=O)cc1)C(C)C (configuration not stated) |  | inactive: -7.84%
30 | C=CCNC(=S)N/N=C/c1ccccc1OCCOc1ccccc1 |  | inactive: -2.46%
31 | CC(=O)NS(=O)(=O)c1ccc(NC(=O)c2cc3c(=O)n4ccccc4nc3s2)cc1 |  | inactive: -15.2%
32 | O=C(NC1CCCCCCC1)c1c(O)c2ccccc2[nH]c1=O |  | inactive: 1.38%
33 | COC(=O)[C@H](C)NC(=O)NCCC1=CCCCC1 | active: 29.9 µM | 
34 | CC(=O)N(O)CCCCCNC(=O)CCC(=O)N(O)CCCCCNC(=O)CCC(=O)N(O)CCCCCN | inconclusive: 26.7 µM [inhibitor, partial curve] | 
35 | COc1cccc(NCCC(=O)c2cccc([N+](=O)[O-])c2)c1 | inconclusive: 26.7 µM [inhibitor, partial curve] | 
36 | COC(=O)c1cccc(NC(=O)NC23CC4CC(CC(C4)C2)C3)c1 |  | inactive: -3.32%
37 | Cc1cccc(NC(=S)N2CCn3cccc3C2c2cccnc2)c1 (configuration not stated) |  | inactive: -9.65%
38 | CC(=O)c1ccc(N2CC(C)(C)C2=O)cc1 |  | inactive: -3.56%
39 | COc1ccc(Cc2nnc(Nc3ccc(Cl)cc3)[nH]c2=O)cc1 |  | inactive: -3.15%
40 | O=C(Cc1cccc2ccccc12)Nc1ccc(O)cc1C(=O)O | active: 26.7 µM | 
41 | O=C(Cn1c(=O)n(Cc2ccco2)c(=O)c2c3c(sc21)CCCC3)Nc1ccccc1 | inconclusive: 29.9 µM [inhibitor, partial curve] | 
42 | CCOc1ccc2c(c1)nc(SCC(=O)c1cccs1)n2C | inconclusive: 18.9 µM [inhibitor, single point] | 
43 | COc1ccc(S(=O)(=O)NC2CC(=O)N(c3ccc(C)c(C)c3)C2)cc1 (configuration not stated) |  | inactive: 2.19%
44 | COCCn1c(=O)[nH]c(=O)c2c1nc(-c1cc(Br)c3c(c1)OCO3)n2Cc1ccccc1 | inconclusive: 33.6 µM [inhibitor, single point] | 
45 | FC(F)Oc1ccc(/C=N/n2c(Cc3ccc(Br)cc3)n[nH]c2=S)cc1 | active: 9.47 µM | 
46 | C/C(=N/NC(=O)C1CCCN1C(=O)c1ccc([N+](=O)[O-])cc1)c1ccc(Br)cc1 (configuration not stated) |  | inactive: 2.02%
47 | Cc1ccc2c(C)c(C(=O)N(C)C(C)c3ccon3)oc2c1C (configuration not stated) | inconclusive: 37.7 µM [inhibitor, single point] | 

Numbers 1–2, reprinted for reference:
Row | SMILES | Potency | max response, negative = inhibition
1 | CC(C)(C)C(C(=O)n1cccc1C#N)c1ccccc1 (configuration not stated) | inconclusive: 37.7 µM [inhibitor, single point] | 
2 | COc1ccc(CN2CC(C(=O)N3CC(C)CC(C)C3)CC2=O)cc1 (configuration not stated) | active: 26.7 µM | 
